The record followed here is PMC9230395.

Construct, isoform or probe ends are uncertain for at least one entry. A negative result means that nothing was seen under these conditions. The comparison behind a weaker result is the experiment's own reference, which may not be listed here.

Data set [1] deals with ZBP1 (recombinant Z-DNA-binding protein). Put plainly: EMSA. The note with it: 6% PAGE (cc-91A), gel at 20 C without MgCl2, letters put together from the description. In general terms: A gel shift assay detects complexes by their altered migration in electrophoresis.
Data set [2] shares this test system. The data set can be described thus: BLI. The note with it: BLI: 1x PBS (10 mM phosphate) pH 7.2, 10 mM MgCl2, 0.1% BSA, 0.02% Tween-20, 25 C, label: 5'-biotin on strand 3, letters put together from the description.
Where [3] appears, read: 10 mM MgCl2, 2.5 uM ZBP1, 132-nt strand circular, EMSA: 10 mM phosphate pH 7.2, 10 mM MgCl2, 0.25 uM DNA.

In the case of “ATATGCCTAGTCTTCCATGACACTGAGACAACTGGAAACCACTCATGCGTAGATGCGAACTAGCACAGTGAACTCATCCACTAGAACTTGAC / GAAGACTAGGCATATGTCAAGTTGACTTGTACTGTCTGGTAGTCAGCTAGGTAGTACTGTTCTCTAGTGGATGAGTTCACTGTGCTAGTTCGCATCTACGCATGAGTGGTTTCCAGTTGTCTCAGTGTCATG [cc-91B (LR-chimera, APP-poor, c92B/c132B)]”, in data set [1] (10 mM MgCl2, substrate decreases, bands less clear than cc-91A, both strands circular (T4 ligase sealed), EMSA: 10 mM phosphate pH 7.2, 10 mM MgCl2, 0.25 uM DNA), the binding result is “binds more weakly”. Consider “CGTGTGATATAGGTGAACGCGCGTGTGTGTATATGTGTGCGATCGTAGAACTTGTGAACCCTTATACCATGCACGATCGCACATTTCGCACA / GCACACATATACACACACGCGCGTTCACCTATATCACACGTGACTTGTAATTAGTAACTACCAACGTGCGTGTGTGTCAGTCAGCGAAATGTGCGATCGTGCATGGTATAAGGGTTCACAAGTTCTACGATC [lc-91A (B-DNA control)]”, for which the binding result in data set [1] (setting [3]) is given as “no binding”. Consider “CGTGTGATATAGGTGAACGCGCGTGTGTGTATATGTGTGCGATCGTAGAACTTGTGAACCCTTATACCATGCACGATCGCACATTTCGCACA / GCACACATATACACACACGCGCGTTCACCTATATCACACGTGACTTGTAATTAGTAACTACCAACGTGCGTGTGTGTCAGTCAGCGAAATGTGCGATCGTGCATGGTATAAGGGTTCACAAGTTCTACGATC [cc-91A (LR-chimera, APP-rich, c92A/c132A)]”, for which the binding result in data set [1] (10 mM MgCl2, clear bands at >=1.875 uM ZBP1, both strands circular (T4 ligase sealed), EMSA: 10 mM phosphate pH 7.2, 10 mM MgCl2, 0.25 uM DNA) is “binds”.

As to “ATATGCCTAGTCTTCCATGACACTGAGACAACTGGAAACCACTCATGCGTAGATGCGAACTAGCACAGTGAACTCATCCACTAGAACTTGAC / GAAGACTAGGCATATGTCAAGTTGACTTGTACTGTCTGGTAGTCAGCTAGGTAGTACTGTTCTCTAGTGGATGAGTTCACTGTGCTAGTTCGCATCTACGCATGAGTGGTTTCCAGTTGTCTCAGTGTCATG / TTTTTACCTCACTATACTTACATGTTTTTTCTACCAGACAGTACAAGTCA [Bait-cc-91B (cc-91B + lnB50)]”, the binding result in data set [2] (10 mM MgCl2, 400 nM ZBP1 gives ~0.15 nm vs ~2.5 nm for cc-91A, fit failed, strands 1 and 2 circular) is listed as “binds more weakly”.

With “CGTGTGATATAGGTGAACGCGCGTGTGTGTATATGTGTGCGATCGTAGAACTTGTGAACCCTTATACCATGCACGATCGCACATTTCGCACA / GCACACATATACACACACGCGCGTTCACCTATATCACACGTGACTTGTAATTAGTAACTACCAACGTGCGTGTGTGTCAGTCAGCGAAATGTGCGATCGTGCATGGTATAAGGGTTCACAAGTTCTACGATC / TTTTTACCTCACTATACTTACATGTTTTTTGGTAGTTACTAATTACAAGT [Bait-lc-91A (lc-91A + lB50, B-DNA)]”, the binding result in data set [2] (10 mM MgCl2, ~0.06 nm response, almost no binding, strand 2 circular) is “no binding”.

For the sequence “CGTGTGATATAGGTGAACGCGCGTGTGTGTATATGTGTGCGATCGTAGAACTTGTGAACCCTTATACCATGCACGATCGCACATTTCGCACA / GCACACATATACACACACGCGCGTTCACCTATATCACACGTGACTTGTAATTAGTAACTACCAACGTGCGTGTGTGTCAGTCAGCGAAATGTGCGATCGTGCATGGTATAAGGGTTCACAAGTTCTACGATC [ll-91A (B-DNA control)]”, the binding result in data set [1] (10 mM MgCl2, 2.5 uM ZBP1, EMSA: 10 mM phosphate pH 7.2, 10 mM MgCl2, 0.25 uM DNA) was “no binding”. As for “ATATGCCTAGTCTTCCATGACACTGAGACAACTGGAAACCACTCATGCGTAGATGCGAACTAGCACAGTGAACTCATCCACTAGAACTTGAC / GAAGACTAGGCATATGTCAAGTTGACTTGTACTGTCTGGTAGTCAGCTAGGTAGTACTGTTCTCTAGTGGATGAGTTCACTGTGCTAGTTCGCATCTACGCATGAGTGGTTTCCAGTTGTCTCAGTGTCATG [lc-91B (B-DNA control)]”, the binding result in data set [1] (setting [3]) was “no binding”.
